Laboratory results taken from the supplement of paper PMC10849652.
This is one part of the list.

Protein sequences, listed by entry. Tags and fused reporters are not part of them. Lines headed by an entry give the natural chain unless they say otherwise; changes in a name come on top.
UniProt Q9BSJ5: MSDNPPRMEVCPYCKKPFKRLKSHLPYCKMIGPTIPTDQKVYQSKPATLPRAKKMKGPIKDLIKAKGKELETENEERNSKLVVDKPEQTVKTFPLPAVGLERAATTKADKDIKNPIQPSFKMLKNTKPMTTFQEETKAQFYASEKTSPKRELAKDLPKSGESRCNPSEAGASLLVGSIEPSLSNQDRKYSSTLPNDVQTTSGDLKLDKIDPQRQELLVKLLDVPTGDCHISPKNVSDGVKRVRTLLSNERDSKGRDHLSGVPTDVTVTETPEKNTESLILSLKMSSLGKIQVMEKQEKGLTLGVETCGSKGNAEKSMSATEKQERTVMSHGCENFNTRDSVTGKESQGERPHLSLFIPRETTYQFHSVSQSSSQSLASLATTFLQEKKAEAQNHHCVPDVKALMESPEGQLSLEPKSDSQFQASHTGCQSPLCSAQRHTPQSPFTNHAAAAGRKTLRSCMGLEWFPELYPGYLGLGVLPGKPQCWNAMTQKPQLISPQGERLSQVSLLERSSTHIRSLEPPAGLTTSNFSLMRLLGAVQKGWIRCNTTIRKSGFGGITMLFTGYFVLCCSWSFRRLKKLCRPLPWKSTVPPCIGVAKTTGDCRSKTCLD
UniProt Q9H7E9: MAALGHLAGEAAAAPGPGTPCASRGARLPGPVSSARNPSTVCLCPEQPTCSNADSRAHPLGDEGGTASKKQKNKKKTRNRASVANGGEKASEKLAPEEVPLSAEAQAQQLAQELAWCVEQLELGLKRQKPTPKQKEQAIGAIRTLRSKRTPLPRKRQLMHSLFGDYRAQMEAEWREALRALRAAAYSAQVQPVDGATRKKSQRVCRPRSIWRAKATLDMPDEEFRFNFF
UniProt Q86YS7: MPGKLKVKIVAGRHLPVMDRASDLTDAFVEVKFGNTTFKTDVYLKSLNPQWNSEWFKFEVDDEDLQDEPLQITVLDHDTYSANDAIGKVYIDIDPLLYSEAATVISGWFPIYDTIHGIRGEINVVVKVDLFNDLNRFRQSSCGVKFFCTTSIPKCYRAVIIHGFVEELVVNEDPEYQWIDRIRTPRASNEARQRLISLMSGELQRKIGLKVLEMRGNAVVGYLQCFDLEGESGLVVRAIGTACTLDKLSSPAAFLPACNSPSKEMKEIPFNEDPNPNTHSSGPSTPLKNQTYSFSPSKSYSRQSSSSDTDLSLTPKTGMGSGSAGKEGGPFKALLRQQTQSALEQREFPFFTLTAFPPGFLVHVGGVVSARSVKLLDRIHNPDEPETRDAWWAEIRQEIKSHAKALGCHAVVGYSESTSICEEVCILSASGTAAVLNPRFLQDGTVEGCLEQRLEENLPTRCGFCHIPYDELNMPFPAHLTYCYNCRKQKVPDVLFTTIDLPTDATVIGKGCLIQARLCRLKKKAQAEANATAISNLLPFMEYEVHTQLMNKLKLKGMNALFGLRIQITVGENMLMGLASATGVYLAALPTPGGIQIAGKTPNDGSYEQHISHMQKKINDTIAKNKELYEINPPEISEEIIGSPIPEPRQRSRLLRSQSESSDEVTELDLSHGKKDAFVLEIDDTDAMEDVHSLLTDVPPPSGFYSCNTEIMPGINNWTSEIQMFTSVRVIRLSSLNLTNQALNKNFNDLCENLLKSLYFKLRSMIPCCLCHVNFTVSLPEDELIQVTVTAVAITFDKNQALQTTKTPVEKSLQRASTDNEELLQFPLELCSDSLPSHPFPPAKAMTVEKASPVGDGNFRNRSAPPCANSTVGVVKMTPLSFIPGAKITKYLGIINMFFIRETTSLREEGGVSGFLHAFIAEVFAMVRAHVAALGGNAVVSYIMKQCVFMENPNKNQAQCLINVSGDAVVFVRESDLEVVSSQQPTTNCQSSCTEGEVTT
UniProt P01024, whole entry, looked up: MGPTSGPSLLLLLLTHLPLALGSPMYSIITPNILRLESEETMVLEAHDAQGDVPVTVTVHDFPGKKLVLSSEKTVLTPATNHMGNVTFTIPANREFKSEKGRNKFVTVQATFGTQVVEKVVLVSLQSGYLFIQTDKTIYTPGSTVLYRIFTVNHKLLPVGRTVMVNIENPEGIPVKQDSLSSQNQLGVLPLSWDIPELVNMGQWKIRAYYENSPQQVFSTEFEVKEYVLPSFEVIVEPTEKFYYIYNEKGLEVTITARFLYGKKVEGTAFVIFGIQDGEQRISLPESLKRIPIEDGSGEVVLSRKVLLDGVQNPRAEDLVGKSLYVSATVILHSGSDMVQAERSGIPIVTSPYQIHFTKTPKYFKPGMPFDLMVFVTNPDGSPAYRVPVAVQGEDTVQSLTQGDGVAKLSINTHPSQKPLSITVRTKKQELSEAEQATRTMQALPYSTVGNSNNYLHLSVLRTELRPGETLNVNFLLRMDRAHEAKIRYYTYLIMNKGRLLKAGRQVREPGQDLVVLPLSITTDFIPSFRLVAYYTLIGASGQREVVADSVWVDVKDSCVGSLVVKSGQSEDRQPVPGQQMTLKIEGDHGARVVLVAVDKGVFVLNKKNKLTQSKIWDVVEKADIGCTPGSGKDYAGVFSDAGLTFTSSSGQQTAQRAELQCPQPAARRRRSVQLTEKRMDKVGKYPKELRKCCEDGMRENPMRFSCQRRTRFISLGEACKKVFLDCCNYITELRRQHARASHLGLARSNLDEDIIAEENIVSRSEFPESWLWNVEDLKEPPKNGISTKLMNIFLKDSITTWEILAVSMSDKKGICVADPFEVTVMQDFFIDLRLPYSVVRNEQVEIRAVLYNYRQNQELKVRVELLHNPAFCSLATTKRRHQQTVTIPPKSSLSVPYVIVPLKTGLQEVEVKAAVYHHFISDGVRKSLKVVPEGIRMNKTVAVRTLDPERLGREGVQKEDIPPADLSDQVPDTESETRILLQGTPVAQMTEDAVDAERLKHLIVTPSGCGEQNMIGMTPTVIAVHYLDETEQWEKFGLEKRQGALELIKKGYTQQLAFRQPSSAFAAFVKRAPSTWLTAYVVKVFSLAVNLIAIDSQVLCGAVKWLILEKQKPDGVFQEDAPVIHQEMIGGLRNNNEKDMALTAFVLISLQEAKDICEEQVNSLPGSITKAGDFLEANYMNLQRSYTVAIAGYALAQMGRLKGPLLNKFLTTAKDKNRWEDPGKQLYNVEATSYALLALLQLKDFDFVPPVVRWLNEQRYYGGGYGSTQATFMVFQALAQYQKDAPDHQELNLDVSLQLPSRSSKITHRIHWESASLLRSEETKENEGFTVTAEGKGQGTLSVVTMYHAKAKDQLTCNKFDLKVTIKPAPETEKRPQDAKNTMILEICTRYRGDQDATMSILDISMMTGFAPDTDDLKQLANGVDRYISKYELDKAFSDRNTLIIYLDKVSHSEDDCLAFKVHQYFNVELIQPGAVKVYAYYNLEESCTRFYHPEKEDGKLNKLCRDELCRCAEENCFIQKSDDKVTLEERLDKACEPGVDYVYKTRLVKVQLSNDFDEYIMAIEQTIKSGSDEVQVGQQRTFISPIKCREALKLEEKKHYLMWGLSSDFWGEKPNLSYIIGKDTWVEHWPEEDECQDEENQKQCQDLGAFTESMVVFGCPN
UniProt O14523: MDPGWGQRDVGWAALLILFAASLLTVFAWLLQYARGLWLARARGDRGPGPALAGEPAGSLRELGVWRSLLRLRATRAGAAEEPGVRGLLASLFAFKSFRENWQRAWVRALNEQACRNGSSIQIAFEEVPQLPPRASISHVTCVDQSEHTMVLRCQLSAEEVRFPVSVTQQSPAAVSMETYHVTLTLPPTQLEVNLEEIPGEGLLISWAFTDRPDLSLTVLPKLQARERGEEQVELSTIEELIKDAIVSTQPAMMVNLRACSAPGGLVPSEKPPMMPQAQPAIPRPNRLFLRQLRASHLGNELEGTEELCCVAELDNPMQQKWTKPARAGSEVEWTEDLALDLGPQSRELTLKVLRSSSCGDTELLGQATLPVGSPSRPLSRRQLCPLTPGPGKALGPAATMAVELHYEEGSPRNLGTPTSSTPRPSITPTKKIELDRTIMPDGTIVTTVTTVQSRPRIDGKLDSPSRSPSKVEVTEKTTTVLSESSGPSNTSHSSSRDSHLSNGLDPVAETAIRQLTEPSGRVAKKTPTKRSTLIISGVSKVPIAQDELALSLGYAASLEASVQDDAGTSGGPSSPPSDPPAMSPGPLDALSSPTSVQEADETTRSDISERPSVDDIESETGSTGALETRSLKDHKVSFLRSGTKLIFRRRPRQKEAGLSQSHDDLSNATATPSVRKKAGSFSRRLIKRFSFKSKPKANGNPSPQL
UniProt Q9UFG5: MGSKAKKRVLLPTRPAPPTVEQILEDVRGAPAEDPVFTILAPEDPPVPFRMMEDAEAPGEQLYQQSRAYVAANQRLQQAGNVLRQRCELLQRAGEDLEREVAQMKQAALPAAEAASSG
UniProt Q9HB71, whole entry, looked up: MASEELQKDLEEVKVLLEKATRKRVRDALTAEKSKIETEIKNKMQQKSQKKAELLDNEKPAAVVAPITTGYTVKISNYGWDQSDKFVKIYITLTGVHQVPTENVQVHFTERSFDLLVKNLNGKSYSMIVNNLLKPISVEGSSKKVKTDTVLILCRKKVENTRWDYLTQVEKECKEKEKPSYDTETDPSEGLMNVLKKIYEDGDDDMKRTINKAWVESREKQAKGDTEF
UniProt Q9Y426: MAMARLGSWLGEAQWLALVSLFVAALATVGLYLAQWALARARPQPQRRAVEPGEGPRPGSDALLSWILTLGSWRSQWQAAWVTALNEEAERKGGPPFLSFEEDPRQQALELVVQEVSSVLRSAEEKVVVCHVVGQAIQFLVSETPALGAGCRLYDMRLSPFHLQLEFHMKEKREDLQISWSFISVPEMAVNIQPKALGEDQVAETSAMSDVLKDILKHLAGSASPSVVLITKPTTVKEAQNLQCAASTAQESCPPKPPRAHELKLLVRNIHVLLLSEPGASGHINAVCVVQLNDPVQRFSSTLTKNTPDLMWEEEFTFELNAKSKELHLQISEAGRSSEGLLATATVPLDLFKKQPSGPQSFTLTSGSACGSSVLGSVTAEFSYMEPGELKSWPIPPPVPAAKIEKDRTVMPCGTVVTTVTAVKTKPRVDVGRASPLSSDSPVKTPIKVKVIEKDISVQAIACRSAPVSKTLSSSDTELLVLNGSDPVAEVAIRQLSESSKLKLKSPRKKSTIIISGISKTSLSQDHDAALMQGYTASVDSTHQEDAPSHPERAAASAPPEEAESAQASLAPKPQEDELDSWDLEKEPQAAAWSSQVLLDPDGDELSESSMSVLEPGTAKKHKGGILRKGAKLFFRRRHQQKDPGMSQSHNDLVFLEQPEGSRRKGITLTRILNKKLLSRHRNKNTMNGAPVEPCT
UniProt Q8WUR7: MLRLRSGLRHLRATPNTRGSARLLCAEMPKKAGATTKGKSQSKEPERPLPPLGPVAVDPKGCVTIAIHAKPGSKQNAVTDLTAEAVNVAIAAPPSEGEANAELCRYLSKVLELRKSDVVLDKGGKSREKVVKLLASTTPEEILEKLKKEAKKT
UniProt P35613: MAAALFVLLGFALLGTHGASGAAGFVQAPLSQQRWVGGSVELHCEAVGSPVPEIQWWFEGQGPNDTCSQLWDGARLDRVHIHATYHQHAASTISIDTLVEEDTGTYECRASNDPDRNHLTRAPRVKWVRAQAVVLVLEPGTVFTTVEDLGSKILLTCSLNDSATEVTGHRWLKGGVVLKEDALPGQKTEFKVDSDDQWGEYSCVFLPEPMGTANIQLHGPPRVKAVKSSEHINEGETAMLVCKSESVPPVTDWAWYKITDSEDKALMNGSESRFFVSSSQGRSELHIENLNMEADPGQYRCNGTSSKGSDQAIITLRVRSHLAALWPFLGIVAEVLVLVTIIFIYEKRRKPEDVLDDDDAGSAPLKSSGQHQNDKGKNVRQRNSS
UniProt O95873: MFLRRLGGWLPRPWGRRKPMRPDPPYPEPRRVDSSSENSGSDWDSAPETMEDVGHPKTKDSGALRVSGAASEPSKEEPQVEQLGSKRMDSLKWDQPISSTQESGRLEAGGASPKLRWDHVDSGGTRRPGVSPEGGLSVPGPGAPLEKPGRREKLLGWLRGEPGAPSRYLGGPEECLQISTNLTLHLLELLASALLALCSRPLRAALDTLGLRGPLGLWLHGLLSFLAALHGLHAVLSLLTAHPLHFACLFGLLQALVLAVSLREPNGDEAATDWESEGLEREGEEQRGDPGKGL
UniProt Q9H425: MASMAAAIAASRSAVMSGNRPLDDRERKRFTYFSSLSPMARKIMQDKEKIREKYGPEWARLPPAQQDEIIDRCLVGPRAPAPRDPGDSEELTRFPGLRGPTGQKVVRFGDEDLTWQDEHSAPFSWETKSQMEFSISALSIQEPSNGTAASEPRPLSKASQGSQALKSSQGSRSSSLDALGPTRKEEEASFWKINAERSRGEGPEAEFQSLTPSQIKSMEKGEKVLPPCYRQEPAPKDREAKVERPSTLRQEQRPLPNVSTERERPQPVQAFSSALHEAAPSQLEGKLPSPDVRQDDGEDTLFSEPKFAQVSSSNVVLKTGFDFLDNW
UniProt Q96MD7: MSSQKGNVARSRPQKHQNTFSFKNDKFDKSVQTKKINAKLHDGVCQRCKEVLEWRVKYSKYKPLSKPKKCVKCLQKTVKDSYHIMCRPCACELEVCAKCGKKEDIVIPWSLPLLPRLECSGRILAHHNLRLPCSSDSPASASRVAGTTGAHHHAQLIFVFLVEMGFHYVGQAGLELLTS

compound: CNCc1ccc(-c2[nH]c3cc(F)cc4c3c2CCNC4=O)cc1 [rucaparib]; experiment: log2 fold change, soluble protein after heating vs DMSO (PISA); higher = thermal stabilisation; K562 cells, 10 uM, 30 min; active = over 0.2 and 3.5 SD of the protein, either way, in both replicates (recomputed)
How it was run: (§1)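 K562 cells (2×10^6 cells/mL) were treated with 10 μM compound for 30 min, and aliquots were heated for 3 min over 48°C-58°C. Pooled aliquots were extracted in PBS with 0.5% NP-40 at 4°C, and the supernatant after 21,000xg for 90 min was measured by TMTpro 16plex LC-MS/MS with channel sums equalised. Reported thermal stability, relative to control samples and from duplicates, is a log2 fold change.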

| Target | log2 fold change |
| --- | --- |
| C17orf80 (UniProt Q9BSJ5) | inactive: -0.008 |
| C8orf33 isoform 2 (UniProt Q9H7E9) | inactive: 0.396 |
| C2CD5 isoform 4 (UniProt Q86YS7) | inactive: -0.061 |
| C3 (UniProt P01024) | inactive: -0.201 |
| C2CD2L (UniProt O14523) | inactive: 0.059 |
| C19orf25 (UniProt Q9UFG5) | inactive: 0.083 |
| CACYBP (UniProt Q9HB71) | inactive: -0.021 |
| C2CD2 (UniProt Q9Y426) | inactive: -0.012 |
| C15orf40 (UniProt Q8WUR7) | inactive: 0.003 |
| BSG (UniProt P35613) | inactive: -0.057 |
| BTF3L4 (UniProt Q96K17) | inactive: -0.008 |
| C6orf47 (UniProt O95873) | inactive: 0.038 |
| C1orf198 (UniProt Q9H425) | inactive: -0.153 |

compound: CNc1nc(-c2ccc3c(N)n[nH]c3c2)cc(N2C[C@@H](C(=O)NC3CCCCC3)CC[C@H]2C)n1; experiment: as above
How it was run: as §1

| Target | log2 fold change |
| --- | --- |
| C1GALT1 (UniProt Q9NS00) | inactive: 0.011 |
| BUD13 (UniProt Q9BRD0) | inactive: -0.056 |
| BUD23 isoform 3 (UniProt O43709) | inactive: 0.032 |
| C1orf131 isoform 5 (UniProt Q8NDD1) | inactive: 0.066 |
| BTF3 (UniProt P20290) | inactive: -0.02 |
| C12orf29 (UniProt Q8N999) | inactive: -0.057 |
| C11orf98 (UniProt E9PRG8) | inactive: 0.072 |
| CALR (UniProt P27797) | inactive: -0.015 |
| BUB1 (UniProt O43683) | inactive: -0.034 |
| CAB39 (UniProt Q9Y376) | inactive: -0.012 |
| C2orf49 (UniProt Q9BVC5) | inactive: 0.159 |
| CALU isoform 3 (UniProt O43852) | inactive: -0.045 |
| C9orf40 (UniProt Q8IXQ3) | inactive: 0.015 |
| C5orf51 (UniProt A6NDU8) | inactive: 0.096 |
| CAPZA2 (UniProt P47755) | inactive: -0.034 |
| CALM2 (UniProt P0DP24) | inactive: -0.047 |
| C6orf89 isoform 2 (UniProt Q6UWU4) | inactive: -0.012 |
| CARHSP1 (UniProt Q9Y2V2) | inactive: 0.004 |
| C5orf22 (UniProt Q49AR2) | inactive: 0.02 |
| BTK isoform 2 (UniProt Q06187) | inactive: 0.26 |

| Target | log2 fold change |
| --- | --- |
| C1orf122 (UniProt Q6ZSJ8) | inactive: -0.092 |
| C11orf54 (UniProt Q9H0W9) | inactive: 0.036 |
| C1orf109 (UniProt Q9NX04) | inactive: -0.031 |
| C3orf38 (UniProt Q5JPI3) | inactive: -0.015 |
| C17orf80 (UniProt Q9BSJ5) | inactive: -0.242 |
| C8orf33 isoform 2 (UniProt Q9H7E9) | inactive: 0.073 |
| C9orf85 isoform 1 (UniProt Q96MD7) | inactive: 0.134 |
| C2CD5 isoform 4 (UniProt Q86YS7) | inactive: -0.057 |
| C3 (UniProt P01024) | inactive: 0.022 |
| C2CD2L (UniProt O14523) | inactive: -0.049 |
| CA13 (UniProt Q8N1Q1) | inactive: 0.005 |
| C19orf25 (UniProt Q9UFG5) | inactive: 0.024 |
| CACYBP (UniProt Q9HB71) | inactive: 0.015 |
| C2CD2 (UniProt Q9Y426) | inactive: -0.022 |
| C15orf40 (UniProt Q8WUR7) | inactive: -0.081 |
| BSG (UniProt P35613) | inactive: 0.053 |
| BTF3L4 (UniProt Q96K17) | inactive: -0.057 |
| C6orf47 (UniProt O95873) | inactive: 0.011 |
| C1orf198 (UniProt Q9H425) | inactive: 0.003 |

compound: COC(=O)N[C@@H](C)CNc1nccc(-c2cn(C(C)C)nc2-c2cc(Cl)cc(NS(C)(=O)=O)c2F)n1 [encorafenib]; experiment: as above
How it was run: as §1

| Target | log2 fold change |
| --- | --- |
| C1GALT1 (UniProt Q9NS00) | inactive: 0.04 |
| BUD23 isoform 3 (UniProt O43709) | inactive: 0.112 |
| C1orf131 isoform 5 (UniProt Q8NDD1) | inactive: 0.158 |
| BTF3 (UniProt P20290) | inactive: 0.008 |
| C12orf29 (UniProt Q8N999) | inactive: -0.002 |
| C11orf98 (UniProt E9PRG8) | inactive: 0.115 |
| CALR (UniProt P27797) | inactive: 0.018 |
| BUB1 (UniProt O43683) | inactive: -0.078 |
| CAB39 (UniProt Q9Y376) | inactive: 0.006 |
| C2orf49 (UniProt Q9BVC5) | inactive: 0.089 |
| CALU isoform 3 (UniProt O43852) | inactive: -0.017 |
| C9orf40 (UniProt Q8IXQ3) | inactive: -0.004 |
| C5orf51 (UniProt A6NDU8) | inactive: 0.009 |
| CAPZA2 (UniProt P47755) | inactive: -0.021 |
| CALM2 (UniProt P0DP24) | inactive: -0.02 |
| C6orf89 isoform 2 (UniProt Q6UWU4) | inactive: 0.016 |
| CARHSP1 (UniProt Q9Y2V2) | inactive: -0.035 |
| C5orf22 (UniProt Q49AR2) | inactive: -0.024 |

| Target | log2 fold change |
| --- | --- |
| C1orf122 (UniProt Q6ZSJ8) | inactive: -0.064 |
| C11orf54 (UniProt Q9H0W9) | inactive: 0.006 |
| C1orf109 (UniProt Q9NX04) | inactive: 0 |
| C3orf38 (UniProt Q5JPI3) | inactive: -0.03 |
| C17orf80 (UniProt Q9BSJ5) | inactive: 0.117 |
| C8orf33 isoform 2 (UniProt Q9H7E9) | inactive: 0.126 |
| C2CD5 isoform 4 (UniProt Q86YS7) | inactive: 0.001 |
| C3 (UniProt P01024) | inactive: -0.058 |
| C2CD2L (UniProt O14523) | inactive: -0.004 |
| C19orf25 (UniProt Q9UFG5) | inactive: -0.029 |
| CACYBP (UniProt Q9HB71) | inactive: -0.009 |
| C2CD2 (UniProt Q9Y426) | inactive: -0.005 |
| C15orf40 (UniProt Q8WUR7) | inactive: -0.081 |
| BSG (UniProt P35613) | inactive: -0.01 |
| BTF3L4 (UniProt Q96K17) | inactive: -0.007 |
| C6orf47 (UniProt O95873) | inactive: -0.054 |
| C1orf198 (UniProt Q9H425) | inactive: -0.042 |
